{"sequences": {"note": "Amino acid sequences for entries named in this document (tags omitted).", "UniProt P57678": "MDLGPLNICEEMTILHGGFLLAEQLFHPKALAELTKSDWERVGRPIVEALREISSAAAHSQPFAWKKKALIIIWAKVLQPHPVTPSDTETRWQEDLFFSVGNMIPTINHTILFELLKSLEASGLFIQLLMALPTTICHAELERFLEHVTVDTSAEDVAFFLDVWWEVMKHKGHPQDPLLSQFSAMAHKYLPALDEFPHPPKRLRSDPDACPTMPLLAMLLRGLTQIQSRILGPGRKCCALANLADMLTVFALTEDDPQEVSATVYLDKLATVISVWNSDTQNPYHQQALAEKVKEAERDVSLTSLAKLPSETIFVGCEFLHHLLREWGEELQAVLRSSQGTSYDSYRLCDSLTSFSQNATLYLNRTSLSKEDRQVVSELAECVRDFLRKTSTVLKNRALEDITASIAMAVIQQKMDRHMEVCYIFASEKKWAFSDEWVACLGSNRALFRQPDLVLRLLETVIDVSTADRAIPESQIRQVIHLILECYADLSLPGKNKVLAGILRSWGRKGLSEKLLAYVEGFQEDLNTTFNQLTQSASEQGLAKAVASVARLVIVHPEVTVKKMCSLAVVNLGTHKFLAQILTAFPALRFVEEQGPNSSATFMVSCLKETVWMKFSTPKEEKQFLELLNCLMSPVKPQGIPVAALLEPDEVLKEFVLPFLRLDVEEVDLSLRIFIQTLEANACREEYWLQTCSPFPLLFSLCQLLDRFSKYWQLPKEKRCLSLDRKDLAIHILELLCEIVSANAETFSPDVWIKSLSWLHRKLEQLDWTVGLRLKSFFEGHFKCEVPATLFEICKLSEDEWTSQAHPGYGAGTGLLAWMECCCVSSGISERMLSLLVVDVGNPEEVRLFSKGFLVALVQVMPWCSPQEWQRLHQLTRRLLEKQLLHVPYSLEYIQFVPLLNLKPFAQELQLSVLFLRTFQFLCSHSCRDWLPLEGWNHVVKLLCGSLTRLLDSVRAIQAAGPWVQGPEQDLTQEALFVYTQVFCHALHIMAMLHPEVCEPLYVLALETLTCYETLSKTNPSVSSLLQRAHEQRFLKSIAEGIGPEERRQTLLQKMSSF", "UniProt Q96RR4": "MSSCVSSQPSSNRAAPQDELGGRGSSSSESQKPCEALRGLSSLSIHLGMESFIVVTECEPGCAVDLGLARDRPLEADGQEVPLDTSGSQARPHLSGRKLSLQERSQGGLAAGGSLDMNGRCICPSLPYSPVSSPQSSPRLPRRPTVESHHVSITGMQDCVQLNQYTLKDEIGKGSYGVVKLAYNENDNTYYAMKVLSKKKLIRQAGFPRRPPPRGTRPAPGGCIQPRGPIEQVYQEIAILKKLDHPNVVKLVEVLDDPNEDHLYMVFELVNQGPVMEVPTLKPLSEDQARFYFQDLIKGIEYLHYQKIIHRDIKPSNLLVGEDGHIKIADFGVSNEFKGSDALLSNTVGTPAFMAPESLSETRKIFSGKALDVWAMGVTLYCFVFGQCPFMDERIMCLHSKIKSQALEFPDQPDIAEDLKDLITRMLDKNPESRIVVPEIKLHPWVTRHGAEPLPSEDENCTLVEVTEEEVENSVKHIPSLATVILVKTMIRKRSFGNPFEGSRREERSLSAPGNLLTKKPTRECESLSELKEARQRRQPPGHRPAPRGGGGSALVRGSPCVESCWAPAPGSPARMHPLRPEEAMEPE", "UniProt Q9UHI6": "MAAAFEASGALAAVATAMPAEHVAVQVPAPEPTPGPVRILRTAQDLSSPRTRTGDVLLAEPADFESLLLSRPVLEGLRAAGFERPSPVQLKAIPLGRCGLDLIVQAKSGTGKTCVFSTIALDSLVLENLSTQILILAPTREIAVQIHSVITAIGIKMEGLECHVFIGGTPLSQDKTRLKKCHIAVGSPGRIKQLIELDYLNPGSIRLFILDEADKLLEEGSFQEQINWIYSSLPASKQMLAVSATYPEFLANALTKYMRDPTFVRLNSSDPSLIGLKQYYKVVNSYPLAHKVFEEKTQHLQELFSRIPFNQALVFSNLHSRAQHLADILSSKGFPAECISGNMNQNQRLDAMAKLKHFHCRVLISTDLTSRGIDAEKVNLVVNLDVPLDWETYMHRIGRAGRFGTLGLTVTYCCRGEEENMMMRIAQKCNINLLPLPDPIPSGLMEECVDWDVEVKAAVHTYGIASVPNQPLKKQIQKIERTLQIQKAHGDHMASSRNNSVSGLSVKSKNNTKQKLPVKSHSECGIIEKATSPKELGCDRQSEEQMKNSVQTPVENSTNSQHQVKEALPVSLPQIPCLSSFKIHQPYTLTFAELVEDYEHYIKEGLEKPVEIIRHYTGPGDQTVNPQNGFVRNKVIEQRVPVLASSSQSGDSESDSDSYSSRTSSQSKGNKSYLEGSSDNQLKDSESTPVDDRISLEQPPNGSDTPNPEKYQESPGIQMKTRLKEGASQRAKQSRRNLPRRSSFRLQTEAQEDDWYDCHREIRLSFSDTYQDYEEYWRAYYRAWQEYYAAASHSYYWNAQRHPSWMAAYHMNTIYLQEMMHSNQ", "UniProt P61923": "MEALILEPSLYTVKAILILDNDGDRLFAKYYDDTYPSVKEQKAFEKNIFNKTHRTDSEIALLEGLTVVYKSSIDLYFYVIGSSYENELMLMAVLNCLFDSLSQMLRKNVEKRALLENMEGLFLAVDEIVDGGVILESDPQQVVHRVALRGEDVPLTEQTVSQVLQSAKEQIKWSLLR", "UniProt Q16637": "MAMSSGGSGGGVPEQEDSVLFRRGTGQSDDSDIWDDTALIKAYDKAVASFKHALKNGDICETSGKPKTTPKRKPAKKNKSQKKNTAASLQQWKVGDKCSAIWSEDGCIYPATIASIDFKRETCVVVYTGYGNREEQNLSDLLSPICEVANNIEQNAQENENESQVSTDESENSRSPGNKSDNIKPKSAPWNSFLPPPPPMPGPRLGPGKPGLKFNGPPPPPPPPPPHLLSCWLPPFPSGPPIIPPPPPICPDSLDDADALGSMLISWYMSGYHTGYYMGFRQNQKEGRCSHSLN"}, "source": "paper PMC8560770", "molecules": {"B1": {"name": "δ-COP (ARCN1), endogenous in LNCaP cells (protein, UniProt P48444 1-511)", "chain": "MVLLAAAVCTKAGKAIVSRQFVEMTRTRIEGLLAAFPKLMNTGKQHTFVETESVRYVYQPMEKLYMVLITTKNSNILEDLETLRLFSRVIPEYCRALEENEISEHCFDLIFAFDEIVALGYRENVNLAQIRTFTEMDSHEEKVFRAVRETQEREAKAEMRRKAKELQQARRDAERQGKKAPGFGGFGSSAVSGGSTAAMITETIIETDKPKVAPAPARPSGPSKALKLGAKGKEVDNFVDKLKSEGETIMSSSMGKRTSEATKMHAPPINMESVHMKIEEKITLTCGRDGGLQNMELHGMIMLRISDDKYGRIRLHVENEDKKGVQLQTHPNVDKKLFTAESLIGLKNPEKSFPVNSDVGVLKWRLQTTEESFIPLTINCWPSESGNGCDVNIEYELQEDNLELNDVVITIPLPSGVGAPVIGEIDGEYRHDSRRNTLEWCLPVIDAKNKSGSLEFSIAGQPNDFFPVQVSFVSKKNYCNIQVTKVTQVDGNSPVRFSTETTFLVDKYEIL"}, "B2": {"name": "α-COP, endogenous in LNCaP cells (protein, UniProt P53621 1-1224)", "chain": "MLTKFETKSARVKGLSFHPKRPWILTSLHNGVIQLWDYRMCTLIDKFDEHDGPVRGIDFHKQQPLFVSGGDDYKIKVWNYKLRRCLFTLLGHLDYIRTTFFHHEYPWILSASDDQTIRVWNWQSRTCVCVLTGHNHYVMCAQFHPTEDLVVSASLDQTVRVWDISGLRKKNLSPGAVESDVRGITGVDLFGTTDAVVKHVLEGHDRGVNWAAFHPTMPLIVSGADDRQVKIWRMNESKAWEVDTCRGHYNNVSCAVFHPRQELILSNSEDKSIRVWDMSKRTGVQTFRRDHDRFWVLAAHPNLNLFAAGHDGGMIVFKLERERPAYAVHGNMLHYVKDRFLRQLDFNSSKDVAVMQLRSGSKFPVFNMSYNPAENAVLLCTRASNLENSTYDLYTIPKDADSQNPDAPEGKRSSGLTAVWVARNRFAVLDRMHSLLIKNLKNEITKKVQVPNCDEIFYAGTGNLLLRDADSITLFDVQQKRTLASVKISKVKYVIWSADMSHVALLAKHAIVICNRKLDALCNIHENIRVKSGAWDESGVFIYTTSNHIKYAVTTGDHGIIRTLDLPIYVTRVKGNNVYCLDRECRPRVLTIDPTEFKFKLALINRKYDEVLHMVRNAKLVGQSIIAYLQKKGYPEVALHFVKDEKTRFSLALECGNIEIALEAAKALDDKNCWEKLGEVALLQGNHQIVEMCYQRTKNFDKLSFLYLITGNLEKLRKMMKIAEIRKDMSGHYQNALYLGDVSERVRILKNCGQKSLAYLTAATHGLDEEAESLKETFDPEKETIPDIDPNAKLLQPPAPIMPLDTNWPLLTVSKGFFEGTIASKGKGGALAADIDIDTVGTEGWGEDAELQLDEDGFVEATEGLGDDALGKGQEEGGGWDVEEDLELPPELDISPGAAGGAEDGFFVPPTKGTSPTQIWCNNSQLPVDHILAGSFETAMRLLHDQVGVIQFGPYKQLFLQTYARGRTTYQALPCLPSMYGYPNRNWKDAGLKNGVPAVGLKLNDLIQRLQLCYQLTTVGKFEEAVEKFRSILLSVPLLVVDNKQEIAEAQQLITICREYIVGLSVETERKKLPKETLEQQKRICEMAAYFTHSNLQPVHMILVLRTALNLFFKLKNFKTAATFARRLLELGPKPEVAQQTRKILSACEKNPTDAYQLNYDMHNPFDICAASYRPIYRGKPVEKCPLSGACYSPEFKGQICRVTTVTEIGKDVIGLRISPLQFR"}}, "note": "Results are given in words; binding and its absence hold for the method and conditions named. In cells and extracts the contact can be indirect. Some binding calls cover weakened binding; strength is not graded here."}
{"molecular_target": "T1, Gemin4 CaMKK2 Binding Motif peptide, biotinylated", "T1 sequence (peptide, biotin)": "SLTSFSQNA", "assay": "pull-down; biotinylated peptide as bait (Pierce Biotinylated Protein Interaction Kit, avidin/streptavidin) with LNCaP cell lysate, steady state or 24 h 10 nM R1881 or ethanol; western blot; only the target purified"}
{"molecule": "Gemin4, endogenous in LNCaP cells (from UniProt P57678 1-1058)", "binding": "binds"}
{"molecule": "Calcium/calmodulin-dependent protein kinase kinase 2 (CaMKK2), endogenous in LNCaP cells (from UniProt Q96RR4 1-588)", "binding": "binds"}
{"molecule": "Gemin3/DDX20, endogenous in LNCaP cells (from UniProt Q9UHI6 1-824)", "binding": "binds"}
{"molecule": "ζ-COP, endogenous in LNCaP cells (from UniProt P61923 1-177)", "binding": "binds"}
{"molecule": "Gemin1/SMN1, endogenous in LNCaP cells (from UniProt Q16637 1-294)", "binding": "no binding"}
{"molecular_target": "T1, Gemin4 CaMKK2 Binding Motif peptide, biotinylated", "assay": "pull-down; biotinylated peptide as bait (Pierce Biotinylated Protein Interaction Kit, avidin/streptavidin) with LNCaP cell lysate, steady state or 24 h 10 nM R1881 or ethanol; western blot; only the target purified", "remark": "another data set of the same source"}
{"molecule": "B1", "binding": "binds"}
{"molecule": "B2", "binding": "binds"}
